Experiment [1] concerns the target human CD19 on CD19+ B cell lines (Ramos, Raji) (human) (UniProt P15391). Put plainly: FACS on CD19+ Ramos cells.
Experiment [2] has the same target. Put plainly: FACS binding to Ramos cells after 0, 1, 4, 7 and 14 days in human serum at 37 C.
Experiment [3] has as its target human CTLA-4 on engineered 293F cells (W316-293F.hPro1.FL) (human) (UniProt P16410). Put plainly: FACS on human CTLA-4 engineered cells.
The target of experiment [4] is human PD-1 on engineered CHO-S cells (W305-CHO-S.hPro1.C6) (human) (UniProt Q15116). Put plainly: FACS on human PD-1 engineered cells.

Sequences of proteins named here, by UniProt entry; tags and fusion partners are left off. A change or cut given only in a name is not applied to a line headed by its entry. Residues count along the entry.
UniProt P15391, residues 20-556: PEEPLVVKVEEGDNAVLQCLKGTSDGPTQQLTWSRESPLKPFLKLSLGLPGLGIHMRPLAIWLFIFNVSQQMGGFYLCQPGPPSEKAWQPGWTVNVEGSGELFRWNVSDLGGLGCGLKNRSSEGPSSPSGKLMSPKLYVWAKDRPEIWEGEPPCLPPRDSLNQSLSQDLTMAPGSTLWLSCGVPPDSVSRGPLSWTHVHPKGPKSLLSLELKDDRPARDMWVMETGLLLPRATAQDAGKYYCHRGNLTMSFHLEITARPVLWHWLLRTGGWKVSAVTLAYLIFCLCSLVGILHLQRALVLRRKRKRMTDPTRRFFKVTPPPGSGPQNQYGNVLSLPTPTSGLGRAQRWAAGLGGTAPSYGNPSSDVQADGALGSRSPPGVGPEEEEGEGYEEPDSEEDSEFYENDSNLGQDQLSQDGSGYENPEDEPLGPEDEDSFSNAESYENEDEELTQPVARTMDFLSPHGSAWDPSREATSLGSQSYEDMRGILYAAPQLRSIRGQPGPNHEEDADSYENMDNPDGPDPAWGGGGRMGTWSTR
UniProt P16410, residues 36-223: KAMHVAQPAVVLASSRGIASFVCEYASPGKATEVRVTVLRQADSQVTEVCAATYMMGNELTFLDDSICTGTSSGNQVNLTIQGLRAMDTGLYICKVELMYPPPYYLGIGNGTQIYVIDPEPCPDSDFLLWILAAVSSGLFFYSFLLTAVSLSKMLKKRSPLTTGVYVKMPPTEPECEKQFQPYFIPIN
UniProt Q15116, residues 25-288: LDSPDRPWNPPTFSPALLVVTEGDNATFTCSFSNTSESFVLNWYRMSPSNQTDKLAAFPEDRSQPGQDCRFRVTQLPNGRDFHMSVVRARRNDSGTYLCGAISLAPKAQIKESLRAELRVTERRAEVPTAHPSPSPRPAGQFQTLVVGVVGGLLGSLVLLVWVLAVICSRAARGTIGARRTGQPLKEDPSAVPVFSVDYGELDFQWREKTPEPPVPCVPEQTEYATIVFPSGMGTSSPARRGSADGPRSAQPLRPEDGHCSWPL

No constants are given. Whether binding was seen depends on the method and setting. Some entries that bind do so weakly or less than the wild type.

B1: W3438-T3U4.E17-1.uIgG4.SP, bispecific anti-CD3 x CD19 (bispecific antibody)
heavy 1: QVQLVQSGAEVKKPGSSVKVSCKASGFAFTDYYIHWVRQAPGQGLEWMGWISPGNVNTKYNENFKGRVTITADKSTSTAYMELSSLRSEDTAVYYCARDGYSLYYFDYWGQGTLVTVLEDLKNVFPPEVAVFEPSEAEISHTQKATLVCLATGFYPDHVELSWWVNGKEVHSGVCTDPQPLKEQPALQDSRYALSSRLRVSATFWQNPRNHFRCQVQFYGLSENDEWTQDRAKPVTQIVSAEAWGRYGPPCPPCPAPEFLGGPSVFLFPPKPKDTLMISRTPEVTCVVVDVSQEDPEVQFNWYVDGVEVHNAKTKPREEQFNSTYRVVSVLTVLHQDWLNGKEYKCKVSNKGLPSSIEKTISKAKGQPREPQVYTLPPCQEEMTKNQVSLWCLVKGFYPSDIAVEWESNGQPENNYKTTPPVLDSDGSFFLYSRLTVDKSRWQEGNVFSCSVMHEALHNHYTQKSLSLSLGK
light 1: DIVMTQSPDSLAVSLGERATINCKSSQSLLNSRTRKNYLAWYQQKPGQPPKLLIYWASTRQSGVPDRFSGSGSGTDFTLTISSLQAEDVAVYYCTQSHTLRTFGGGTKVEIKPDIQNPDPAVYQLRDSKSSDKSVCLFTDFDSQTQVSQSKDSDVYITDKCVLDMRSMDFKSNSAVAWSQKSDFACANAFQNSIIPEDTFFPSPESS
heavy 2: QMQLVQSGPEVKKPGTSVKVSCKASGYAFTSYNMYWVRQARGQRLEWIGYIDPYNGDTTYNQKFKGRVTITRDMSTSTAYMELSSLRSEDTAVYYCLTTAYAMDYWGQGTLVTVSSASTKGPSVFPLAPCSRSTSESTAALGCLVKDYFPEPVTVSWNSGALTSGVHTFPAVLQSSGLYSLSSVVTVPSSSLGTKTYTCNVDHKPSNTKVDKRVESKYGPPCPPCPAPEFLGGPSVFLFPPKPKDTLMISRTPEVTCVVVDVSQEDPEVQFNWYVDGVEVHNAKTKPREEQFNSTYRVVSVLTVLHQDWLNGKEYKCKVSNKGLPSSIEKTISKAKGQPREPQVCTLPPSQEEMTKNQVSLSCAVKGFYPSDIAVEWESNGQPENNYKTTPPVLDSDGSFFLVSRLTVDKSRWQEGNVFSCSVMHEALHNHYTQKSLSLSLGK
light 2: DIQLTQSPSFLSASVGDRVTITCSASSTVNYMHWYQQKPGKAPKLLIYSTSNLASGVPSRFSGSGSGTEFTLTISSLQPEDFATYYCHQWSSYPYTFGQGTKLEIKRTVAAPSVFIFPPSDEQLKSGTASVVCLLNNFYPREAKVQWKVDNALQSGNSQESVTEQDSKDSTYSLSSTLTLSKADYEKHKVYACEVTHQGLSSPVTKSFNRGEC
B1: the binding entry in experiment [1] and in experiment [2] was “binds” each time.

B2: U6T5.G19R.IgG4, bispecific anti-PD-1 x CTLA-4 (bispecific antibody)
heavy: EVQLLESGGGLVQPGGSLRLSCAASGFTFSSHAMSWVRQAPGKGLEWVSTITGGGGSIYYADSVKGRFTISRDNSKNTLYLQMNSLRAEDTAVYYCAKNRAGEGYFDYWGQGTLVTVLEDLKNVFPPEVAVFEPSEAEISHTQKATLVCLATGFYPDHVELSWWVNGKEVHSGVCTDPQPLKEQPALQDSRYALSSRLRVSATFWQNPRNHFRCQVQFYGLSENDEWTQDRAKPVTQIVSAEAWGRYGPPCPPCPAPEFLGGPSVFLFPPKPKDTLMISRTPEVTCVVVDVSQEDPEVQFNWYVDGVEVHNAKTKPREEQFNSTYRVVSVLTVLHQDWLNGKEYKCKVSNKGLPSSIEKTISKAKGQPREPQVYTLPPSQEEMTKNQVSLTCLVKGFYPSDIAVEWESNGQPENNYKTTPPVLDSDGSFFLYSRLTVDKSRWQEGNVFSCSVMHEALHNHYTQKSLSLSLGGGGGSGGGGSGGGGSGGGGSQVQLVQSGAEVKKPGSSVKVSCKASGYTFTNYFMNWVRQAPGQGLEWMGRVDPEQGRADYAEKFKKRVTITADKSTSTAYMELSSLRSEDTAVYYCARRAMDNYGFAYWGQGTLVTVSSASTKGPSVFPLAPCSRSTSESTAALGCLVKDYFPEPVTVSWNSGALTSGVHTFPAVLQSSGLYSLSSVVTVPSSSLGTKTYTCNVDHKPSNTKVDKRV
light 1: SYELTQPLSVSVALGQTARITCGGDNIGNKDVHWYQQKPGQAPVLVIYRDSNRPSGIPEGFSGSNSGNTATLTISRAQAGDEADYYCQVWDSIWVFGGGTKLTVLPDIQNPDPAVYQLRDSKSSDKSVCLFTDFDSQTQVSQSKDSDVYITDKCVLDMRSMDFKSNSAVAWSQKSDFACANAFQNSIIPEDTFFPSPESS
light 2: EIVLTQSPDFQSVTPKEKVTITCSANSALSYMYWYQQKPDQSPKLWVHGTSNLASGVPSRFSGSGSGTDFTLTINSLEAEDAATYYCHHWSNTQWTFGGGTKVEIKRTVAAPSVFIFPPSDEQLKSGTASVVCLLNNFYPREAKVQWKVDNALQSGNSQESVTEQDSKDSTYSLSSTLTLSKADYEKHKVYACEVTHQGLSSPVTKSFNRGEC
On to B2, for which the binding entry in experiment [3] and in experiment [4] was “binds” throughout.

The values above are taken from US20240124586A1.
